Laboratory results as given in patent US20070003517A1 (UNIVERSITY OF MASSACHUSETTS, published 2007).
No constants are given. Whether binding was seen depends on the method and setting. Binding seen in cells or lysates may run through a third protein. Some binding calls cover weakened binding; strength is not graded here. Where a sequence is shown, tags or fusion partners need not be part of it.

The chains behind the UniProt entries cited, without tags or fusion partners. Where a name states a change or a piece, a line headed by the entry shows the natural chain unless it says otherwise. A line that says so, or that is headed by a name, gives the form on record, which may keep a tag or linker. Residues count along the entry.
HA-JNK1 (epitope (HA) tagged JNK1) (P45983-2, form named): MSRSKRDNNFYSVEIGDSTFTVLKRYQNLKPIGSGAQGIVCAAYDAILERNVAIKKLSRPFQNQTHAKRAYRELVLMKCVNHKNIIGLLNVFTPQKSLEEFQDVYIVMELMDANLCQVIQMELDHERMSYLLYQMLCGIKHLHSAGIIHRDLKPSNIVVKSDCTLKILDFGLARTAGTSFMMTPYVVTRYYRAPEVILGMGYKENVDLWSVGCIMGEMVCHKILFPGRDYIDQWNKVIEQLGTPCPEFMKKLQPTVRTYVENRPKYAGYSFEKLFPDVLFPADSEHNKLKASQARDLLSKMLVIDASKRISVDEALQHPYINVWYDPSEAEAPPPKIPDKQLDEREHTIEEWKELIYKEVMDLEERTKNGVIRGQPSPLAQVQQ
Flag epitope-tagged JNK1 (cell lysate) (P45983-2, form named): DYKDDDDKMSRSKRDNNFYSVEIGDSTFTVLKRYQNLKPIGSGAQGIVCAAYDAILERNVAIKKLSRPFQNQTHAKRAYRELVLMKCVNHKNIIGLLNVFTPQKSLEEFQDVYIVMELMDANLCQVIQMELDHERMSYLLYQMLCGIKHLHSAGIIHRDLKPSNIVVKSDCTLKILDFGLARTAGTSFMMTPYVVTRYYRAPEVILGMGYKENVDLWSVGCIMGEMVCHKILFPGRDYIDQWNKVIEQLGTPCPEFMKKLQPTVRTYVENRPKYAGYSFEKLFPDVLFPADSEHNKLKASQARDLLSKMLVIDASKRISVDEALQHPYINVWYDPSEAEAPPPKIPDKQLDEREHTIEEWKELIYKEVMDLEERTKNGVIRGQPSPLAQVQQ
UniProt P05412, residues 1-79: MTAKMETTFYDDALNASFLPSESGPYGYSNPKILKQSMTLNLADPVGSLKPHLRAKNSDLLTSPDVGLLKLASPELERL

B1: Flag-JIP-1 (Flag epitope-tagged murine JNK interacting protein-1, full length) (protein)
chain: MDYKDDDDKAERESGLGGGAASPPAASPFLGLHIASPPNFRLTHDISLEEFEDEDLSEITDECGISLQCKDTLSLRPPRAGLLSAGSSGSAGSRLQAEMLQMDLIDAAGDTPGAEDDEEEEDDELAAQRPGVGPPKAESNQDPAPRSQGQGPGTGSGDTYRPKRPTTLNLFPQVPRSQDTLNNNSLGKKHSWQDRVSRSSSPLKTGEQTPPHEHICLSDELPPQGSPVPTQDRGTSTDSPCRRSAATQMAPPSGPPATAPGGRGHSHRDRIHYQADVRLEATEEIYLTPVQRPPDPAEPTSTFMPPTESRMSVSSDPDPAAYSVTAGRPHPSISEEDEGFDCLSSPERAEPPGGGWRGSLGEPPPPPRASLSSDTSALSYDSVKYTLVVDEHAQLELVSLRPCFGDYSDESDSATVYDNCASASSPYESAIGEEYEEAPQPRPPTCLSEDSTPDEPDVHFSKKFLNVFMSGRSRSSSAESFGLFSCVINGEEHEQTHRAIFRFVPRHEDELELEVDDPLLVELQAEDYWYEAYNMRTGARGVFPAYYAIEVTKEPEHMAALAKNSCVLEISVRGVKIGVKADDALEAKGNKCSHFFQLKNISFCGYHPKNNKYFGFITKHPADHRFACHVFVSEDSTKALAESVGRAFQQFYKQFVEYTCPTEDIYLE
B2: GST-JIP-1 (residues 127-281), GST fusion of the JNK binding domain (JBD) of JIP-1 (protein, not shown: a dimerising Fc or GST)
chain: PKAESNQDPAPRSQGQGPGTGSGDTYRPKRPTTLNLFPQVPRSQDTLNNNSLGKKHSWQDRVSRSSSPLKTGEQTPPHEHICLSDELPPQGSPVPTQDRGTSTDSPCRRSAATQMAPPSGPPATAPGGRGHSHRDRIHYQADVRLEATEEIYLTP
B3: GST-ATF2 fusion protein (residues 1-109 of ATF2) (protein, UniProt P15336 1-109, looked up, not shown: a dimerising Fc or GST)
chain: MKFKLHVNSARQYKDLWNMSDDKPFLCTAPGCGQRFTNEDHLAVHKHKHEMTLKFGPARNDSVIVADQTPTPTRFLKNCEEVGLFNELASPFENEFKKASEDDIKKMPL
B4: GST-JIP-1 fusion protein containing residues 127-202 of JIP-1 (protein, not shown: a dimerising Fc or GST)
chain: PKAESNQDPAPRSQGQGPGTGSGDTYRPKRPTTLNLFPQVPRSQDTLNNNSLGKKHSWQDRVSRSSSPLKTGEQTP
B5: GST fusion protein containing residues 135-202 of JIP-1 (protein, not shown: a dimerising Fc or GST)
chain: PAPRSQGQGPGTGSGDTYRPKRPTTLNLFPQVPRSQDTLNNNSLGKKHSWQDRVSRSSSPLKTGEQTP
B6: GST fusion protein containing residues 144-202 of JIP-1 (protein, not shown: a dimerising Fc or GST)
chain: PGTGSGDTYRPKRPTTLNLFPQVPRSQDTLNNNSLGKKHSWQDRVSRSSSPLKTGEQTP

Target: HA-JNK1 (epitope (HA) tagged JNK1) (UniProt P45983)
Experiment: co-immunoprecipitation from transfected COS-1 cells, immunoblot

Molecule	binding
B1	binds

Target: T1, Flag epitope-tagged JNK1 (cell lysate) (human, UniProt P45983-2 1-384, limits assumed)
T1 construct: written N-terminal here
Experiment: GST pull-down from cell lysate, anti-Flag (M2) immunoblot
Method: To test whether JIP-1 binding to JNK is also isoform-dependent, a binding assay was utilized. Cell lysates (1 ml in TLB) containing JNK1, JNK2, or p38 MAP kinase, each tagged with the Flag epitope, were incubated with 5 μg GST-fusion proteins pre-bound to 10 μl glutathione-Sepharose. […] The GST-ATF2 fusion protein contains residues 1-109 of ATF2, and the GST-Jun fusion protein contains residues 1-79 of c-Jun. After incubation for one hour at 4° C. and three washes with TLB, bound proteins were detected by protein immunoblot analysis with the M2 monoclonal antibody, which is specific for the Flag epitope. Dérijard, et al., supra; Sluss et al., supra; Gupta et al., supra. When ATF2 or c-jun GST fusion proteins were used in this assay, binding to JNK1 was greater than binding to JNK2. This finding is consistent with the results of previous studies. […] The level of binding of these fusion proteins to JNK1 was similar to the level of binding to JNK2.

binding	Molecule
binds	GST-Jun fusion protein (residues 1-79 of c-Jun) (from UniProt P05412 1-79)
binds	B2
binds	B3
binds	B4

Target: T1, Flag epitope-tagged JNK1 (cell lysate)
Experiment: GST pull-down from cell lysate, immunoblot

binding	Molecule
binds	B5
binds	PKRPTTLNLFPQVPRSQDTLNNNSLGKKHSWQDRVSRSSSPLKTGEQTP (peptide, not shown: a dimerising Fc or GST) [GST fusion protein containing residues 154-202 of JIP-1]
binds	B4
binds	B6
